Laboratory results: PubChem BioAssay AID540276 (National Center for Advancing Translational Sciences (NCATS), 2011)
Screen size: about 300,000 compounds; about 5,400 (1.8%) were called active. Inconclusive results, whose numbers are uncertain, are shown with a selection of clear calls. Calls follow the shape of the full dose curve; tested in HEK293 cells. Potencies beside an inconclusive call are fits to weak or partial responses and may not hold up.

Assay: qHTS for inhibitors of binding or entry into cells for Marburg Virus
Conditions: Marburg virus pseudotyped entry inhibition, cell reporter; activity change, negative = inhibition: at 37.8 µM (top of the series) unless noted
% is scaled to controls: 0 for no effect and ±100 for the full control effect; potency is read from the fitted curve at half-maximal effect.

Structure (SMILES)	Potency	activity change, negative = inhibition
Cc1c(Cl)c(C(=O)NNC(=S)Nc2ccccc2)nn1C	inconclusive: 6.31 µM [activator, partial curve, poor fit]	–
Cc1occc1-c1nnc(SCC(=O)N2CCCCC2)o1	inconclusive: 0.794 µM [activator, full curve, poor fit]	–
COCC(C)NC(=S)NCCc1ccc(Cl)cc1Cl (stereo not drawn)	inconclusive: 23.1 µM [inhibitor, partial curve, poor fit]	–
CN1CC[C@@]23CCCC[C@@H]2[C@@H]1Cc1ccc(O)cc13	inconclusive: 25.9 µM [inhibitor, partial curve, poor fit]	–
C=C1CCC2C(C)(C)[C@H](O)CC[C@@]2(C)[C@@H]1COc1cc(=O)oc2ccccc12 (stereo partly drawn)	inconclusive: 16.4 µM [inhibitor, single point]	–
Cc1ccc(-n2[nH]c(=O)c(-c3ccccn3)c2C)cc1	inconclusive: 2.82 µM [inhibitor, full curve, poor fit]	–
CN(CC(=O)Nc1cccc(F)c1)CC(=O)N1CCc2ccccc21	–	inactive: 15.3%
O=C(NNc1ccccc1)C(CCO)C(=O)NNc1ccccc1	inconclusive: 0.92 µM [inhibitor, partial curve, poor fit]	–
COc1ccc(/C=C/C(=O)OCC(=O)N(C)CC(=O)Nc2ccc(C)cc2)c(OC)c1	inconclusive: 35.5 µM [activator, single point]	–
CCOC(=O)c1cc2c(ccn2C)n1CC(=O)N1CCC(Cc2ccccc2)CC1	inconclusive: 16.4 µM [inhibitor, partial curve, poor fit]	–
COc1nc(NC2CCCCC2)nc(N2CCCCCC2)n1	inconclusive: 22.4 µM [inhibitor, single point]	–
CN(C)CCCNc1oc(/C=C/c2ccccc2)nc1C#N	inconclusive: 0.794 µM [activator, partial curve]	–
COc1ccc(CCNC(=O)C(C)n2nc(C)c3sc4ccccc4c3c2=O)cc1OC (stereo not drawn)	inconclusive: 1.12 µM [activator, full curve, poor fit]	–
CCCc1cc(NCCCO)n2c(nc3ccccc32)c1C#N	–	inactive: -19.1% [at 46.1 µM]
CN1CCN(c2ccc(NC(=O)N3CCc4ccccc43)cc2)CC1	inconclusive: 6.31 µM [inhibitor, partial curve, poor fit]	–
CCOC(=O)c1cnc2c(N=Nc3cccc(Cl)c3)c(N)nn2c1N	–	inactive: -0.896%
O=C(NCc1cccnc1)c1ccc(COc2ccc3c(c2)CCC3)o1	active: 23.1 µM	–
COCCNC(=O)C(=O)Nc1ccc2nc3n(c(=O)c2c1)CCCCC3	–	inactive: 9.14% [at 46.1 µM]
CC(C(=O)NCC1CCCCC1)N1CCN(S(=O)(=O)/C=C/c2ccccc2)CC1 (stereo not drawn)	inconclusive: 0.259 µM [inhibitor, full curve, poor fit]	–
CCCCCC(=O)N1C[C@H](O)[C@@H](n2cc(-c3ccc(F)cc3)nn2)C[C@H]1c1ccc(C)cc1	inconclusive: 4.99 µM [inhibitor, full curve, poor fit]	–
CC(O)CNc1nc(Cl)c(C#N)s1 (stereo not drawn)	–	inactive: -13.1% [at 46.1 µM]
Nc1nc(N2C(=O)C3CC=CCC3C2=O)nn1-c1ccccc1 (stereo not drawn)	–	inactive: -17.4%
COc1ccc(C(=O)Oc2c(Sc3ccc(C)cc3)c(C)nn2C(C)(C)C)c(OC)c1	inconclusive: 7.08 µM [inhibitor, full curve]	–

Structure (SMILES)	Potency	activity change, negative = inhibition
Cn1c(SCC(=O)c2ccccc2)nnc1-c1cccc(N)c1	inconclusive: 17.8 µM [activator, single point]	–
C=CCNc1ncnc2c1cnn2-c1ccc(OC)cc1	inconclusive: 1.16 µM [activator, single point]	–
Cc1cc(C(=O)N/N=C/c2cc(Cl)cc([N+](=O)[O-])c2O)c2ccccc2n1	inconclusive: 10 µM [inhibitor, partial curve]	–
CCOc1ccc(CCNC(=O)c2cc3cc4ccc(OC)cc4nc3s2)cc1OCC	inconclusive: 2.82 µM [inhibitor, single point]	–
Cc1[nH]n(-c2cccc(Cl)c2)c(=O)c1C=NC12CN3CN(CN(C3)C1)C2	inconclusive: 8.91 µM [activator, partial curve]	–
Cc1ccc(NS(=O)(=O)c2ccc(C(=O)N3CCCC(C(F)(F)F)C3)cc2)cc1 (stereo not drawn)	inconclusive: 35.5 µM [inhibitor, partial curve, poor fit]	–
CCCCC1=CC2=C(c3ccco3)C(=O)C(C)(OC(=O)c3ccc(OC)cc3)C(=O)C2=CN1Cc1ccc2c(c1)OCO2 (stereo not drawn)	inconclusive: 0.237 µM [inhibitor, full curve, poor fit]	–
CC1(C)C(=O)Nc2ccccc2N1C(=O)COC(=O)c1ccc(Cl)c(S(=O)(=O)NCc2ccccc2)c1	inconclusive: 22.4 µM [inhibitor, partial curve, poor fit]	–
CCOc1ccc(NS(=O)(=O)c2ccc(C(=O)N(CC)CC(=O)NCc3cccs3)cc2)cc1	inconclusive: 2 µM [inhibitor, full curve, poor fit]	–
O=C(CCNC(=O)c1ccccc1)Nc1cccnc1	inconclusive: 2.82 µM [activator, single point]	–
S=C(NCc1cccnc1)Nc1cccc(Cl)c1	–	inactive: 10.5%
O=S(=O)(O)c1nc2ccccc2n1Cc1ccccc1	inconclusive: 11.2 µM [activator, single point]	–
Cc1cccc(C(=O)Nc2cc3c(cc2N2CCCCC2)n(C)c(=O)n3C)c1	–	inactive: 6.24% [at 46.1 µM]
Cc1ccc(NC(=O)Cc2nnc(SCC(=O)c3ccc(Br)cc3)n2C)cc1	inconclusive: 32.6 µM [inhibitor, single point]	–
CCOC(=O)c1ccc(Nc2nc(=O)c3cccnc3s2)cc1	active: 2.06 µM	–
CN(C(=O)c1ccccn1)c1nnc(-c2ccccn2)s1	inconclusive: 2.82 µM [activator, full curve]	–
CC(=O)c1cccc(NC(=O)c2ccc3c(c2)CCN3S(=O)(=O)c2ccccc2)c1	–	inactive: -25.4% [at 46.1 µM]
Cc1ccccc1C(=O)NNC(=S)NC(=O)c1ccccc1	inconclusive: 25.1 µM [inhibitor, single point]	–
c1ccc2c(c1)oc1c(NCC3CCCO3)ncnc12 (stereo not drawn)	–	inactive: 24.6%
CCN(C(=O)CN(C)Cc1cccc(Cl)c1Cl)c1c(N)n(Cc2ccccc2)c(=O)[nH]c1=O	inconclusive: 17.8 µM [activator, single point]	–
COc1ccc(NC(=O)C/C(C)=N/NC(=O)C(=O)Nc2cccc(Cl)c2C)c(OC)c1	inconclusive: 7.94 µM [inhibitor, partial curve, poor fit]	–
COc1ccc2nc(C)cc(SCC(=O)N/N=C/c3ccc(O)c(O)c3)c2c1	inconclusive: 0.562 µM [inhibitor, full curve, poor fit]	–
CCOc1ccc(-c2csc(NC(=O)c3ccc(S(=O)(=O)N4CCc5ccccc5C4)cc3)n2)cc1	–	inactive: -3.25%

A different layout for five compounds above:
Structure (SMILES) | Potency | activity change, negative = inhibition
Cc1ccccc1C(=O)NNC(=S)NC(=O)c1ccccc1 | inconclusive: 25.1 µM [inhibitor, single point] | –
c1ccc2c(c1)oc1c(NCC3CCCO3)ncnc12 (stereo not drawn) | – | inactive: 24.6%
CCN(C(=O)CN(C)Cc1cccc(Cl)c1Cl)c1c(N)n(Cc2ccccc2)c(=O)[nH]c1=O | inconclusive: 17.8 µM [activator, single point] | –
COc1ccc(NC(=O)C/C(C)=N/NC(=O)C(=O)Nc2cccc(Cl)c2C)c(OC)c1 | inconclusive: 7.94 µM [inhibitor, partial curve, poor fit] | –
COc1ccc2nc(C)cc(SCC(=O)N/N=C/c3ccc(O)c(O)c3)c2c1 | inconclusive: 0.562 µM [inhibitor, full curve, poor fit] | –

The list goes on.

Structure (SMILES)	Potency	activity change, negative = inhibition
COCCNC(=O)Nc1ccc2nc(C)sc2c1	inconclusive: 20.6 µM [activator, single point]	–
CCCC(c1nnnn1CCc1ccccc1)N1CCC(C(N)=O)CC1 (stereo not drawn)	inconclusive: 3.55 µM [activator, single point]	–
O=C(Nc1cccc(Cl)c1)Nc1ccccc1NS(=O)(=O)c1cccs1	inconclusive: 1.12 µM [inhibitor, full curve, poor fit]	–
c1ccc(-c2nc3c4ccccc4ccn3c2CN2CCCCC2)cc1	inconclusive: 25.1 µM [inhibitor, single point]	–
COC1CCCN(C(=O)c2ccc(OC3CCN(CCc4ccccc4)CC3)cc2)C1 (stereo not drawn)	inconclusive: 7.94 µM [inhibitor, partial curve]	–
O=C(Nc1ccon1)c1sc2cc(F)ccc2c1Cl	–	inactive: 47.9%
Cc1cc(=O)c(C(=O)O)nn1-c1ccccc1F	–	inactive: 7.32% [at 46.1 µM]
CC(Oc1ccc(Cl)cc1Cl)C(=O)Nc1ccc2oc(-c3ccncc3)nc2c1 (stereo not drawn)	active: 2.06 µM	–
CN1CCN(CC(=O)Nc2ccccc2Sc2ccccc2)CC1	inconclusive: 25.1 µM [inhibitor, partial curve, poor fit]	–
Cc1ccc(OS(=O)(=O)c2ccc(-c3csc(C)n3)s2)c(C)c1	inconclusive: 12.6 µM [inhibitor, partial curve]	–
Nc1cc2c(cc1Br)[nH]c(=O)c1ccccc12	inconclusive: 11.2 µM [inhibitor, partial curve, poor fit]	–
CSc1ccc(Nc2nn(-c3ccc(OC(F)(F)F)cc3)nc2C(C)=O)cc1	–	inactive: -1.45% [at 46.1 µM]
O=C(Cc1ccccc1)Nc1ccc2c(c1)CCC2	–	inactive: -23.8% [at 46.1 µM]
COc1ccccc1CN(Cc1cc2c(C)ccc(C)c2[nH]c1=O)Cc1nnnn1Cc1ccco1	inconclusive: 11.2 µM [inhibitor, partial curve, poor fit]	–
CCN1CCN(C(=O)c2cc3c(=O)n4ccccc4nc3s2)CC1	–	inactive: 9.22% [at 46.1 µM]
CSc1cccc(CN2CCCC(CNC(=O)c3ccco3)C2)c1 (stereo not drawn)	inconclusive: 1.26 µM [inhibitor, single point]	–
CCOC(=O)c1cccc(NC(=O)CCc2c(C)nc3c4cccnc4nn3c2C)c1	–	inactive: -14% [at 46.1 µM]
CC1(CC(=O)Nc2ccccc2)NC(=S)N(c2ccccc2)N1 (stereo not drawn)	–	inactive: 12.3% [at 46.1 µM]
CCOC(=O)CNC(=O)c1cccs1	–	inactive: 3.84%
COc1ccc(NC(=O)C2CCN(S(=O)(=O)c3ccc4c(c3)NC(=O)C(C)S4)CC2)cc1 (stereo not drawn)	inconclusive: 1.12 µM [inhibitor, partial curve, poor fit]	–
COC(=O)C1=C(c2ccccc2)c2ccccc2S(=O)(=O)N1CC(=O)Nc1cc(C)ccc1C	–	inactive: -21.7% [at 46.1 µM]
O=C(c1ccccc1)N1CCC(c2nc(-c3ccc(S(=O)(=O)NCC4CCCO4)cc3)no2)CC1 (stereo not drawn)	inconclusive: 1.46 µM [inhibitor, full curve, poor fit]	–
